Data as given in publication PMC5091760.
No constants are given. Whether binding was seen depends on the method and setting. In cells and extracts the contact can be indirect. Some results given as binding are weak or reduced against the parent protein; the word gives no strength.

Chains of the proteins cited; added tags and fusions are not shown.
UniProt Q9UMN6: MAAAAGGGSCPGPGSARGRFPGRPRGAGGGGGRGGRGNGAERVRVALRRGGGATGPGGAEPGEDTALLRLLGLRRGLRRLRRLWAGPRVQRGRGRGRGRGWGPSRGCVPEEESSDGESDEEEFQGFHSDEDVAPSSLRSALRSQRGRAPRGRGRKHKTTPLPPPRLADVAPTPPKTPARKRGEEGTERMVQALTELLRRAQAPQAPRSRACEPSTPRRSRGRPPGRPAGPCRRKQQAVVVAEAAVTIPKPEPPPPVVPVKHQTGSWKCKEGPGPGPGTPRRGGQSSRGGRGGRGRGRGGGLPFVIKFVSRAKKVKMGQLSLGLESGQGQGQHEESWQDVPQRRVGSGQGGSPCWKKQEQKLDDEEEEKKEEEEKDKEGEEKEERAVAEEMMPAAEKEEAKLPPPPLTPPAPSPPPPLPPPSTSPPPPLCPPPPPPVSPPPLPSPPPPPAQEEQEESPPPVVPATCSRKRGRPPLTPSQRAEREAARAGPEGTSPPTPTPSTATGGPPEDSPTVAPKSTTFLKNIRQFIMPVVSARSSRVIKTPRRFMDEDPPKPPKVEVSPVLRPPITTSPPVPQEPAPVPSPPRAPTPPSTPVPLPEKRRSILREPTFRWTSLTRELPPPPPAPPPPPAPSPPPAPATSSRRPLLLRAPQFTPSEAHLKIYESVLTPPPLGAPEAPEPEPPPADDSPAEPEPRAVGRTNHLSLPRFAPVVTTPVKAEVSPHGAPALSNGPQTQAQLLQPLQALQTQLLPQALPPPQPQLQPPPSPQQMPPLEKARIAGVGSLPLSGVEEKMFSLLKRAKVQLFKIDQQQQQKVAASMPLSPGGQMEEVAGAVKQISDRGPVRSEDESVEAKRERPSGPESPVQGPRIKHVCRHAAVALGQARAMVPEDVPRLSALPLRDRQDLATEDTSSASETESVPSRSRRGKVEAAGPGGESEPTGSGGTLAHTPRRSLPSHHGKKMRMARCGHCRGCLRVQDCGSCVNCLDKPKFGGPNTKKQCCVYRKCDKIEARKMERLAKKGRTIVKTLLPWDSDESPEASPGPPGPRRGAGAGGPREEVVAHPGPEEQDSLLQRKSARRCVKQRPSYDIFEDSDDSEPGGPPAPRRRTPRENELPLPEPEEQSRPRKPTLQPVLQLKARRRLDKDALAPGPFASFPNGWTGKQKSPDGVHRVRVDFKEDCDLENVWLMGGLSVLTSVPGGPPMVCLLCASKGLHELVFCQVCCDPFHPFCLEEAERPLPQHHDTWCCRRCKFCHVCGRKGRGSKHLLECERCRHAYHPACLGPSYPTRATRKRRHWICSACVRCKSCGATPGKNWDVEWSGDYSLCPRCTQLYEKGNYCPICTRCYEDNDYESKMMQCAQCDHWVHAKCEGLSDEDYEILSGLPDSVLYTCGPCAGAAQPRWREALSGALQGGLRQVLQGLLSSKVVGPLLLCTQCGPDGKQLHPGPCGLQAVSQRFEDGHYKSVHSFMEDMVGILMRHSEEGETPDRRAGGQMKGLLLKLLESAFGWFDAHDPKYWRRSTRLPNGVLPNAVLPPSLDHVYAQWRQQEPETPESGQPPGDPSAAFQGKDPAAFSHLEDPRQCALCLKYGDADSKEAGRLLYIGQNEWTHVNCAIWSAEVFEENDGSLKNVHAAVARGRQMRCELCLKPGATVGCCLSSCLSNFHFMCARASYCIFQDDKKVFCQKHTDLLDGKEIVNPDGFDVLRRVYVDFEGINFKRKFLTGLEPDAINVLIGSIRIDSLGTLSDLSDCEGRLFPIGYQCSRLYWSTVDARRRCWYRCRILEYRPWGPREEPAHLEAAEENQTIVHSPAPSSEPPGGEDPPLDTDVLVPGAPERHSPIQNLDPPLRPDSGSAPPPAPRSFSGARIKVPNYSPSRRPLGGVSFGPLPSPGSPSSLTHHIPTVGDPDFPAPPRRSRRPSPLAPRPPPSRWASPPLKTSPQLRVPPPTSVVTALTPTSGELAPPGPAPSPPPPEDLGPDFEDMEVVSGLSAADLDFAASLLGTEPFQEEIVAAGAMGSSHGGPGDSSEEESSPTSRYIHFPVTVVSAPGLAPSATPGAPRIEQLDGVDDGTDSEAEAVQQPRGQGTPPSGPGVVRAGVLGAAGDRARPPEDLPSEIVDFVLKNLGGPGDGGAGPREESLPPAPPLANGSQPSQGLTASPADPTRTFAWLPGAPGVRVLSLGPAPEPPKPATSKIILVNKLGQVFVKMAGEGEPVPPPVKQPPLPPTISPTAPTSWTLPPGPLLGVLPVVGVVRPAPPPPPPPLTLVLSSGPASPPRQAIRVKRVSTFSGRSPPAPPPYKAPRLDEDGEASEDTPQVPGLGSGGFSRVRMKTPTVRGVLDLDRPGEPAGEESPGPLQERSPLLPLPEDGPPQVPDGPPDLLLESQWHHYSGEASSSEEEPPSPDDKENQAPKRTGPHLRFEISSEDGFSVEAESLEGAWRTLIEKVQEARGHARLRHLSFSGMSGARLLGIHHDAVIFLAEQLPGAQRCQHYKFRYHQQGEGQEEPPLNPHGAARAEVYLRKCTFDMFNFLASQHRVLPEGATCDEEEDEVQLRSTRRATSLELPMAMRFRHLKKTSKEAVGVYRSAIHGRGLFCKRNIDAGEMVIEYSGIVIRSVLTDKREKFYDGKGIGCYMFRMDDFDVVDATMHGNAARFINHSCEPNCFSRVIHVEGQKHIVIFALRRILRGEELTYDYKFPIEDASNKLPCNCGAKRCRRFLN
UniProt P03372: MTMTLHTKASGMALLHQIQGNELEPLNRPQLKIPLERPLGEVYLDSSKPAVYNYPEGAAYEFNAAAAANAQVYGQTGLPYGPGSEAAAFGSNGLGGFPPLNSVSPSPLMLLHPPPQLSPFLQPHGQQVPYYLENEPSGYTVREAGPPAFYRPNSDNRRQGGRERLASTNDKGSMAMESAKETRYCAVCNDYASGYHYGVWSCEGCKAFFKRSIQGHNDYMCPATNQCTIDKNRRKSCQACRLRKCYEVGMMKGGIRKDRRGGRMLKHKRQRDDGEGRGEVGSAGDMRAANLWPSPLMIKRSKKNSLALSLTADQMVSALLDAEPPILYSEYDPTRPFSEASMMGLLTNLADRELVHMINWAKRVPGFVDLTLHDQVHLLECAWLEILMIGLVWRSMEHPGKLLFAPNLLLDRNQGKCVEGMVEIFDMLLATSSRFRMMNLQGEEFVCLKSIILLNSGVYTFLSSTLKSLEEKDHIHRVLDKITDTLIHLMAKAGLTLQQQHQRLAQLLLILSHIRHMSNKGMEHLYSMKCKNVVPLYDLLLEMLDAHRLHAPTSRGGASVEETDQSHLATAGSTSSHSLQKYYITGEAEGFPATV

Target: KMT2B histone methyltransferase (human (endogenous in MCF-7)) (UniProt Q9UMN6)
Test: co-IP; endogenous proteins; MCF-7 cells treated with E2 for 24 h; whole-cell lysates immunoprecipitated with KMT2B or ERα antibodies; western blot with anti-KMT2B or anti-ERα

In the case of “estrogen receptor alpha (ERα) (from UniProt P03372 1-595)”, the binding is reported as “binds”.
